Assays:
[1] = test system: endogenous kinase (synuclein phosphorylation); assay: HEK-293 cells overexpressing synuclein with empty vector, inhibition of synuclein phosphorylation; assay type: cell-based, human
Procedure: All vectors had the sequence coding for the protein of interest. Transfection was accomplished using Lipofectamine 2000 (Invitrogen, Carlsbad, Calif.) with 0.08 μg vector. Cells were washed and harvested 48 hours post-transfection. A Micro BCA (Pierce) total protein assay and total synuclein and phospho-synuclein ELISAs were performed on each plate of treated cells.

[2] = test system: synuclein phosphorylation (serine-129); assay: inhibition of synuclein phosphorylation across the cellular paradigms (primary neuronal cultures and 293 cells); assay type: cell-based, mouse, rat and human; conditions: cell types tested

CO[C@@H]1[C@H](N(C)C(=O)c2ccccc2)C[C@H]2O[C@]1(C)n1c3ccccc3c3c4c(c5c6ccccc6n2c5c31)C(=O)NC4 [N-benzoyl staurosporine]
EC50 [1]: > 100 µM | inhibition of 50% of synuclein phosphorylation in cells [2]: did not inhibit 50%

— patent US20110207796A1, “ALPHA-SYNUCLEIN KINASE” (Elan Pharma International Limited, priority 2008, published 2011)
